The supplement of paper PMC8728848
The list shows a part of the results.

Experiments:
Assay in all cases: glycan array binding signal (z-score within array); higher = stronger binding
Settings in all cases: glycan notation: IUPAC condensed, linker removed
[1] = target: Neu5Ac(a2-6)GlcNAc(b1-4)GlcNAc(b1-4)GlcNAc
Outline: (§1)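 Negative Z-scores can be read as non-binding. The Z-score is calculated within each array and then averaged across arrays of one protein sequence at different concentrations or buffers and across linkers. Arrays, 3228 in all, were curated from the Consortium for Functional Glycomics database and kept only where the protein sequence was available.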

Neu5Ac(a2-8)Neu5Ac = target: Neu5Ac(a2-8)Neu5Ac
Outline: as §1

[2] = target: Neu5Ac(a2-8)Neu5Ac(a2-3)Gal(b1-3)GalNAc(b1-4)[Neu5Ac(a2-3)]Gal(b1-4)Glc
Outline: as §1

[3] = target: Neu5Ac(a2-8)Neu5Ac(a2-3)Gal(b1-3)GalNAc(b1-4)[Neu5Ac(a2-8)Neu5Ac(a2-3)]Gal(b1-4)Glc
Outline: as §1

[4] = target: Neu5Ac(a2-8)Neu5Ac(a2-3)Gal(b1-4)Glc
Outline: as §1

[5] = target: Neu5Ac(a2-8)Neu5Ac(a2-3)Gal(b1-4)GlcNAc
Outline: as §1

[6] = target: Neu5Ac(a2-8)Neu5Ac(a2-3)[Gal(b1-3)GalNAc(b1-4)]Gal(b1-4)Glc
Outline: as §1

[7] = target: Neu5Ac(a2-8)Neu5Ac(a2-3)[GalNAc(b1-4)]Gal(b1-4)Glc
Outline: as §1

[8] = target: Neu5Ac(a2-8)Neu5Ac(a2-8)Neu5Ac
Outline: as §1

[9] = target: Neu5Ac(a2-8)Neu5Ac(a2-8)Neu5Ac(a2-3)Gal(b1-4)Glc
Outline: as §1

[10] = target: Neu5Ac(a2-8)Neu5Ac(a2-8)Neu5Ac(a2-3)[Gal(b1-3)GalNAc(b1-4)]Gal(b1-4)Glc
Outline: as §1

[11] = target: Neu5Ac(a2-8)Neu5Ac(a2-8)Neu5Ac(a2-3)[GalNAc(b1-4)]Gal(b1-4)Glc
Outline: as §1

[12] = target: Neu5Ac(a2-8)Neu5Ac(a2-8)Neu5Ac(a2-8)Neu5Ac(a2-3)[GalNAc(b1-4)]Gal(b1-4)Glc
Outline: as §1

[13] = target: Neu5Ac(a2-8)Neu5Gc(a2-3)Gal(b1-4)GlcNAc
Outline: as §1

[14] = target: Neu5Ac(b2-6)Gal(b1-4)GlcNAc
Outline: as §1

Neu5Ac(b2-6)GalNAc = target: Neu5Ac(b2-6)GalNAc
Outline: as §1

[15] = target: Neu5Ac9Ac(a2-3)Gal(b1-3)GlcNAc
Outline: as §1

[16] = target: Neu5Ac9Ac(a2-3)Gal(b1-4)GlcNAc
Outline: as §1

[17] = target: Neu5Ac9Ac(a2-6)Gal(b1-4)GlcNAc
Outline: as §1

[18] = target: Neu5Gc(a2-3)Gal(b1-3)GlcNAc
Outline: as §1

[19] = target: Neu5Gc(a2-3)Gal(b1-3)[Fuc(a1-4)]GlcNAc
Outline: as §1

Neu5Gc(a2-3)Gal(b1-4)Glc = target: Neu5Gc(a2-3)Gal(b1-4)Glc
Outline: as §1

[20] = target: Neu5Gc(a2-3)Gal(b1-4)GlcNAc
Outline: as §1

[21] = target: Neu5Gc(a2-3)Gal(b1-4)GlcNAc(b1-3)Gal(b1-4)GlcNAc(b1-2)Man(a1-3)[Neu5Gc(a2-3)Gal(b1-4)GlcNAc(b1-3)Gal(b1-4)GlcNAc(b1-2)Man(a1-6)]Man(b1-4)GlcNAc(b1-4)GlcNAc
Outline: as §1

[22] = target: Neu5Gc(a2-3)Gal(b1-4)[Fuc(a1-3)]GlcNAc
Outline: as §1

[23] = target: Neu5Gc(a2-6)Gal(b1-4)GlcNAc
Outline: as §1

Neu5Gc(a2-6)GalNAc = target: Neu5Gc(a2-6)GalNAc
Outline: as §1

[24] = target: Neu5Gc(a2-8)Neu5Ac(a2-3)Gal(b1-4)GlcNAc
Outline: as §1

[25] = target: Neu5Gc(a2-8)Neu5Gc(a2-3)Gal(b1-4)GlcNAc
Outline: as §1

[26] = target: Neu5Gc(a2-8)Neu5Gc(a2-3)Gal(b1-4)GlcNAc(b1-3)Gal(b1-4)GlcNAc
Outline: as §1

B1: TAL6-6LysM (Trichoderma atroviride) (protein)
chain: AASKLGVPQPAQRDQVNCQLYAVQPNDNCIDISSKNNITYAQLLSWNPSLSSTCSNLASLNSSSICVSNPKGTFSISSNTVGATDIATTTAPVPSPTLDQTTSRCAKYYQVSDGDDCSHLTAQFAITLKDFIFLNSEVWQNCTNLELGYYYCVEPVGYISTYPGYLPTATTKPFNQTSATSLPYDGDPWARFSSNSSVIPIANGTRVDCYSYVYVKNLTENLFADCWNMASMYEITREELVLWNPSLGNDGSSGSNLSGAEASQVASSIAIPTTAPSSITTNLYTYPCTVAANISYCVALVSSTGALPTNTAPPGPHASGEISNCTAWFAPEAYDTCKSILDIFEMSFANFYKMNPSVGPDCSGLAVGTNYCVSTYPNGEDPNDDWDGDDSIPSISPTGIITPTPTQSGMVSNCNKFYDVHSNDGCSAIASSQHVDLSSLYKWNPAIKTDCSGLQASVYVCIGILTTSMSTTSKLPTTTSKPSTTSKPPTGITTPTPTQSGMVKNCNKFYDVHSGDGCSAIASSQKVNLSSFYLWNPAVKTDCSGLQASVFVCIGTLTTSMSTTTSKLPTTTSKPSTTSKPPTGIITPTPTQNGMVKNCNKFYDVHSGDGCSAIASSQKVNLSSFYLWNPAVKTDCSGLQASVFVCVGTATTTTAAGITTPTPTQSGMVSGCNKFYDVHAGDGCSAIASSQKIALSSLYKWNPAVKTDCSGLQASVYICIGVGNAAAARVTGAAASFLEQKLISEEDLNSAVDHHHHHH
glycan array binding signal (z-score) [1]: -1
glycan array binding signal (z-score) (Neu5Ac(a2-8)Neu5Ac): -0.044
glycan array binding signal (z-score) [2]: -0.253
glycan array binding signal (z-score) [3]: 0.052
glycan array binding signal (z-score) [4]: -1.51
glycan array binding signal (z-score) [5]: -1.09
glycan array binding signal (z-score) [6]: -0.399
glycan array binding signal (z-score) [7]: 2.17
glycan array binding signal (z-score) [8]: -0.139
glycan array binding signal (z-score) [9]: -0.819
glycan array binding signal (z-score) [10]: -0.053
glycan array binding signal (z-score) [11]: 1.2
glycan array binding signal (z-score) [12]: 0.373
glycan array binding signal (z-score) [13]: -0.396
glycan array binding signal (z-score) [14]: 0.126
glycan array binding signal (z-score) (Neu5Ac(b2-6)GalNAc): -0.369
glycan array binding signal (z-score) [15]: -1.09
glycan array binding signal (z-score) [16]: -1.11
glycan array binding signal (z-score) [17]: -0.339
glycan array binding signal (z-score) [18]: -0.841
glycan array binding signal (z-score) [19]: -1.24
glycan array binding signal (z-score) (Neu5Gc(a2-3)Gal(b1-4)Glc): -1.25
glycan array binding signal (z-score) [20]: -0.605
glycan array binding signal (z-score) [21]: -1.84
glycan array binding signal (z-score) [22]: 0.247
glycan array binding signal (z-score) [23]: 0.191
glycan array binding signal (z-score) (Neu5Gc(a2-6)GalNAc): -0.67
glycan array binding signal (z-score) [24]: -0.626
glycan array binding signal (z-score) [25]: -1.72
glycan array binding signal (z-score) [26]: -0.429
